Laboratory results from paper PMC6588558.

Amino acid sequences for entries named in this document (tags omitted). Residues count along the entry.
UniProt P02768, residues 25-609: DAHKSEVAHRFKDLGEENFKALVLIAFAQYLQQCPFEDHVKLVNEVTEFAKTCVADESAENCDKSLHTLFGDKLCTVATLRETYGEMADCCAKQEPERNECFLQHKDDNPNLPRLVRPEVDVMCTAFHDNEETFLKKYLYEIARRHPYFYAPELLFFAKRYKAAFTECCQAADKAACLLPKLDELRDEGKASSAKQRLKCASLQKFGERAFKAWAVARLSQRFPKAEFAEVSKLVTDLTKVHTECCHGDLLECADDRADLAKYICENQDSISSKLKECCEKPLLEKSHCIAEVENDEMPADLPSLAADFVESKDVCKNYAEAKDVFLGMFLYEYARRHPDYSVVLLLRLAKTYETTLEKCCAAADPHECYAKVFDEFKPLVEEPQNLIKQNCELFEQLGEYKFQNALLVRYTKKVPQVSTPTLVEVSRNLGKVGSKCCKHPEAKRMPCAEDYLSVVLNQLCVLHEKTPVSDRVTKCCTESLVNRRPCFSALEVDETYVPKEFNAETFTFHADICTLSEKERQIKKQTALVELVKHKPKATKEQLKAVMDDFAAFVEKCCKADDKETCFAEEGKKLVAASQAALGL

Target: M1 protein (S. pyogenes) (UniProt Q99XV0)
Assay: affinity purification with mass spectrometry; AP-DIA: 10 μg affinity-tagged bait on Strep-Tactin Sepharose beads, pooled normal human plasma (100 μl) or saliva (200 μl), 37 °C, 1 h, washed with ice-cold PBS, eluted with biotin; DIA-MS; sfGFP as negative control; only the target purified

human serum albumin (of plasma) (from UniProt P02768 25-609)
binding: binds

These are yes or no findings as the source states them, for the method shown. Binding seen in cells or lysates may run through a third protein. A yes stands for co-enrichment or nearness to the bait. Other partners may have been found.
